Results published in paper PMC12282061.
No constants are given. Whether binding was seen depends on the method and setting. In cells and extracts the contact can be indirect. Binding calls can cover weak binding; strength is not graded here.

Experiments:
TBK1-HA (swine) = assay: co-IP; HEK293T cells transfected with TBK1-HA or IKKε-HA along with METTL3-Flag; at 24 h lysates immunoprecipitated with anti-HA antibody; western blot
METTL3-Flag (swine) = assay: co-IP; HEK293T cells co-transfected with the two tagged constructs; lysates (M2 buffer, 0.5% Nonidet P-40, 20 mM Tris-HCl, 3 mM EDTA, 3 mM EGTA, PMSF) immunoprecipitated with anti-Flag (M2 beads, 3 h), washed five times with 500 mM NaCl buffer; western blot; also with METTL3-GFP or METTL3-D395A-GFP co-expressed (Fig. 7D, 7I)

binding (TBK1-HA (swine)) | binding (METTL3-Flag (swine)) | Substance
binds |  | METTL3-Flag (from UniProt A0A7H1RGN6)
 | binds | TBK1-HA (from UniProt A0A4X1W422)
